Source: the supplement of paper PMC9233669
Variants at the floor of the assay are shown more often than the library holds them.

Tests used:
biotinyl-Trp-oxazolone = assay: self-aminoacylation, catalytic enhancement (BWO) (fold over background); higher = more active; k-Seq, kA / k0A0; sequences stand for … in GGGAAUGGAUCCACAUCUACGAAUUC…UUCACUGCAGACUUGACGAAGCUG
How it was run: (§1)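 Each biotinyl-aminoacyl-oxazolone, at 2–1250 μM, was incubated with mutagenized RNA pools (0.43 μM) carrying a 21-nt variable region. The 50 μL reactions contained HEPES/NaCl/KCl/MgCl2/CaCl2 buffer with 5% acetonitrile at pH 6.9–7.0 and ran for 90 minutes at room temperature. After streptavidin capture, RNA was measured by qPCR in triplicate and by Illumina sequencing, and catalytic enhancement was calculated as median kA over the uncatalyzed rate from a pseudo-first-order fit of per-sequence fraction reacted.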

biotinyl-Val-oxazolone = assay: self-aminoacylation, catalytic enhancement (BVO) (fold over background); higher = more active; k-Seq, kA / k0A0; sequences stand for … in GGGAAUGGAUCCACAUCUACGAAUUC…UUCACUGCAGACUUGACGAAGCUG
How it was run: as §1

biotinyl-Ile-oxazolone = assay: self-aminoacylation, catalytic enhancement (BIO) (fold over background); higher = more active; k-Seq, kA / k0A0; sequences stand for … in GGGAAUGGAUCCACAUCUACGAAUUC…UUCACUGCAGACUUGACGAAGCUG
How it was run: as §1

biotinyl-Met-oxazolone = assay: self-aminoacylation, catalytic enhancement (BMO) (fold over background); higher = more active; k-Seq, kA / k0A0; sequences stand for … in GGGAAUGGAUCCACAUCUACGAAUUC…UUCACUGCAGACUUGACGAAGCUG
How it was run: as §1

biotinyl-Leu-oxazolone = assay: self-aminoacylation, catalytic enhancement (BLO) (fold over background); higher = more active; k-Seq, kA / k0A0; sequences stand for … in GGGAAUGGAUCCACAUCUACGAAUUC…UUCACUGCAGACUUGACGAAGCUG
How it was run: as §1

AGUACCCCGGUCAUCGAGUGA [Fam2.1 aminoacylation ribozyme variant]
self-aminoacylation (biotinyl-Trp-oxazolone): 7.21
self-aminoacylation (biotinyl-Val-oxazolone): 3.75
self-aminoacylation (biotinyl-Ile-oxazolone): 3.7
self-aminoacylation (biotinyl-Met-oxazolone): 5.52
self-aminoacylation (biotinyl-Leu-oxazolone): 6.8

AGUACCCUGGUCAUCGAGUGC [Fam2.1 aminoacylation ribozyme variant]
self-aminoacylation (biotinyl-Trp-oxazolone): 1.3
self-aminoacylation (biotinyl-Val-oxazolone): 1.31
self-aminoacylation (biotinyl-Ile-oxazolone): 1.09
self-aminoacylation (biotinyl-Met-oxazolone): 1.91
self-aminoacylation (biotinyl-Leu-oxazolone): 1.77

AUAACCCUGGUCAUCCAGUGA [Fam2.1 aminoacylation ribozyme variant]
self-aminoacylation (biotinyl-Trp-oxazolone): 6.17
self-aminoacylation (biotinyl-Val-oxazolone): 3.21
self-aminoacylation (biotinyl-Ile-oxazolone): 3.62
self-aminoacylation (biotinyl-Met-oxazolone): 5.52
self-aminoacylation (biotinyl-Leu-oxazolone): 6.28

AUACACCUAGGUCAGCGGGUG [Fam2.2 aminoacylation ribozyme variant]
self-aminoacylation (biotinyl-Trp-oxazolone): 3.08
self-aminoacylation (biotinyl-Val-oxazolone): 2.15
self-aminoacylation (biotinyl-Ile-oxazolone): 2.29
self-aminoacylation (biotinyl-Met-oxazolone): 3.8
self-aminoacylation (biotinyl-Leu-oxazolone): 3.49

AUGACCCUGGUCAUCGCGUGA [Fam2.1 aminoacylation ribozyme variant]
self-aminoacylation (biotinyl-Trp-oxazolone): 19.7
self-aminoacylation (biotinyl-Val-oxazolone): 7.53
self-aminoacylation (biotinyl-Ile-oxazolone): 7.46
self-aminoacylation (biotinyl-Met-oxazolone): 16
self-aminoacylation (biotinyl-Leu-oxazolone): 17.1

AUGUUUGCUAAUAGUCGGAAG [Fam3.1 aminoacylation ribozyme variant]
self-aminoacylation (biotinyl-Trp-oxazolone): 1.93
self-aminoacylation (biotinyl-Val-oxazolone): 0.847
self-aminoacylation (biotinyl-Ile-oxazolone): 1.12
self-aminoacylation (biotinyl-Met-oxazolone): 0.991
self-aminoacylation (biotinyl-Leu-oxazolone): 0.93

AUUACAUUGGUCAUCGAGUGA [Fam2.1 aminoacylation ribozyme variant]
self-aminoacylation (biotinyl-Trp-oxazolone): 6.85
self-aminoacylation (biotinyl-Val-oxazolone): 2.95
self-aminoacylation (biotinyl-Ile-oxazolone): 3.03
self-aminoacylation (biotinyl-Met-oxazolone): 5.35
self-aminoacylation (biotinyl-Leu-oxazolone): 5.8

AUUACCCUGGCCAUCCAGUGA [Fam2.1 aminoacylation ribozyme variant]
self-aminoacylation (biotinyl-Trp-oxazolone): 7.75
self-aminoacylation (biotinyl-Val-oxazolone): 4.01
self-aminoacylation (biotinyl-Ile-oxazolone): 4.38
self-aminoacylation (biotinyl-Met-oxazolone): 7.34
self-aminoacylation (biotinyl-Leu-oxazolone): 8.23

AUUACCCUGGUAACCGAGUGA [Fam2.1 aminoacylation ribozyme variant]
self-aminoacylation (biotinyl-Trp-oxazolone): 14.2
self-aminoacylation (biotinyl-Val-oxazolone): 5.58
self-aminoacylation (biotinyl-Ile-oxazolone): 5.22
self-aminoacylation (biotinyl-Met-oxazolone): 12.5
self-aminoacylation (biotinyl-Leu-oxazolone): 12.2

AUUACCCUGGUCAUCAUGUGA [Fam2.1 aminoacylation ribozyme variant]
self-aminoacylation (biotinyl-Trp-oxazolone): 6.97
self-aminoacylation (biotinyl-Val-oxazolone): 3.17
self-aminoacylation (biotinyl-Ile-oxazolone): 2.67
self-aminoacylation (biotinyl-Met-oxazolone): 6.44
self-aminoacylation (biotinyl-Leu-oxazolone): 6.36

AUUACCCUGGUCCUCGAGUGC [Fam2.1 aminoacylation ribozyme variant]
self-aminoacylation (biotinyl-Trp-oxazolone): 1.31
self-aminoacylation (biotinyl-Val-oxazolone): 1.06
self-aminoacylation (biotinyl-Ile-oxazolone): 0.969
self-aminoacylation (biotinyl-Met-oxazolone): 0.658
self-aminoacylation (biotinyl-Leu-oxazolone): 1.07

AUUACCCUGGUCUUCGAGUGA [Fam2.1 aminoacylation ribozyme variant]
self-aminoacylation (biotinyl-Trp-oxazolone): 6.84
self-aminoacylation (biotinyl-Val-oxazolone): 3.3
self-aminoacylation (biotinyl-Ile-oxazolone): 3.09
self-aminoacylation (biotinyl-Met-oxazolone): 5.36
self-aminoacylation (biotinyl-Leu-oxazolone): 5.52
